Measurements reported in the supplement of paper PMC10060354, “Discovery of a small molecule ligand of FRS2 that inhibits invasion and tumor growth” (Cellular Oncology, 2022).

The chains behind the UniProt entries cited, without tags or fusion partners. Where a name states a change or a piece, a line headed by the entry shows the natural chain unless it says otherwise.
UniProt O14531, whole entry: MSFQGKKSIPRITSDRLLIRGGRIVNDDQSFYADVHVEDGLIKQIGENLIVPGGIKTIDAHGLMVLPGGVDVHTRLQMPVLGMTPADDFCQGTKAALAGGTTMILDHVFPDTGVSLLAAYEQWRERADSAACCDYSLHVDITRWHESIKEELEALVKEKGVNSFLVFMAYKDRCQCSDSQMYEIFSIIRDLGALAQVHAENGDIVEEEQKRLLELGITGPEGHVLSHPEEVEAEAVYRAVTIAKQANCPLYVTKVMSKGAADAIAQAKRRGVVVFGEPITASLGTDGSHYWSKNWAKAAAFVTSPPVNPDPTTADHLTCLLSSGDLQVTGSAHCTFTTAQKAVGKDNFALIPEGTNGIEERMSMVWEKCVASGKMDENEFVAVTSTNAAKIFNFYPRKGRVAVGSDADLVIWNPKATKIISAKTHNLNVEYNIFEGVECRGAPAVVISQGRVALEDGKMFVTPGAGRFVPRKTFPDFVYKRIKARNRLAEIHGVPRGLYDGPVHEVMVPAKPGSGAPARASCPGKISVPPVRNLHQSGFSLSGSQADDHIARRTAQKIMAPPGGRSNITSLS
UniProt Q92766: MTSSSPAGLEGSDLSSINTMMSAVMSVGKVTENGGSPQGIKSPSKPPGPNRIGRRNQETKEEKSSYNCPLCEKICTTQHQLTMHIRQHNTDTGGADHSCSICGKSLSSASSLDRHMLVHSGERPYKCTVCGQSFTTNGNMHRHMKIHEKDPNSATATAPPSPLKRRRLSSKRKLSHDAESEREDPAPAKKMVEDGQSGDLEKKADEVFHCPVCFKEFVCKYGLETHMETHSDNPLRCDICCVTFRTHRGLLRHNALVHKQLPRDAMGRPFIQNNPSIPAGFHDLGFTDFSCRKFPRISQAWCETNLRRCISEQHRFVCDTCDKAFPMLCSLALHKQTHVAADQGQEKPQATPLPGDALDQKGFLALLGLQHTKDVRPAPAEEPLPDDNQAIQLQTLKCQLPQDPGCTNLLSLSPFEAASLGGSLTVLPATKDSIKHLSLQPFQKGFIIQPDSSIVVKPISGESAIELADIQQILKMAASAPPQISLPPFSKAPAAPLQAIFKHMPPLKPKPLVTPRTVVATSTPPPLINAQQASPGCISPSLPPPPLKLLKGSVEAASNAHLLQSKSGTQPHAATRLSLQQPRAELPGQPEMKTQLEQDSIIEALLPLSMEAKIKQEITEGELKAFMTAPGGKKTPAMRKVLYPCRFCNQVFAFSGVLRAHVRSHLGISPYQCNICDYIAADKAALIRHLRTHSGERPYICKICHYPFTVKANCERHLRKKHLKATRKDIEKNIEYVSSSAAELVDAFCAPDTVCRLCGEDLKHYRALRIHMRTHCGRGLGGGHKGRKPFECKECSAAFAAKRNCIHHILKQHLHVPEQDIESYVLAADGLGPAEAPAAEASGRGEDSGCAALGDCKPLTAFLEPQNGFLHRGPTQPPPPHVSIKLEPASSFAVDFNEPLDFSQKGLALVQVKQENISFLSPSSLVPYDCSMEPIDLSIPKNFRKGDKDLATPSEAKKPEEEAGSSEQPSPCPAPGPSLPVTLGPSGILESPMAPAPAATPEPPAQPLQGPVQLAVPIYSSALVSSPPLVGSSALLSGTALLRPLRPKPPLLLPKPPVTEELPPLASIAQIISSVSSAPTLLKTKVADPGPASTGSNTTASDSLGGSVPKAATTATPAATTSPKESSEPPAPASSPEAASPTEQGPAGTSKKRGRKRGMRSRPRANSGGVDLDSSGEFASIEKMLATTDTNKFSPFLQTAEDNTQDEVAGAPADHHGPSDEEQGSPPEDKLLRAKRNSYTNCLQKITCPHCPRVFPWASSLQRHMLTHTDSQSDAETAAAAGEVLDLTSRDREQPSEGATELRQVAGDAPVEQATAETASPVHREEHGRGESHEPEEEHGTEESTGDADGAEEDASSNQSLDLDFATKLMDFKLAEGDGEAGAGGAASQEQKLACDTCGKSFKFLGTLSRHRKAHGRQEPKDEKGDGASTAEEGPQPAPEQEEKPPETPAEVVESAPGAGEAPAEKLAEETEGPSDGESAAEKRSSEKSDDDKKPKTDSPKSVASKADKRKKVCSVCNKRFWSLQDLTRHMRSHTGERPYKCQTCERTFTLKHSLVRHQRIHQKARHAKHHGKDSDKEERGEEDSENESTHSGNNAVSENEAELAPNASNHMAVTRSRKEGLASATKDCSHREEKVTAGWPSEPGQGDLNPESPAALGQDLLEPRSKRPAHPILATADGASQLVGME
UniProt Q96J42: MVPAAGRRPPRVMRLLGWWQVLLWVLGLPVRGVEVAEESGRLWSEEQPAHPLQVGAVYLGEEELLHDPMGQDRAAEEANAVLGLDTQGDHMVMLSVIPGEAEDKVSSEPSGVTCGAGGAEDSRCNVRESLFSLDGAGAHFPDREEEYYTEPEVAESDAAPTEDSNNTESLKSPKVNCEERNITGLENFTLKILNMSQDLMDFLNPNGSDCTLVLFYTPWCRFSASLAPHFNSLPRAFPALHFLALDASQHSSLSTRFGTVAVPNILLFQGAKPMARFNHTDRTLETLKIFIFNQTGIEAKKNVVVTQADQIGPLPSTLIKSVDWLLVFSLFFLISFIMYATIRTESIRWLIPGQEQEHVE
UniProt Q13107: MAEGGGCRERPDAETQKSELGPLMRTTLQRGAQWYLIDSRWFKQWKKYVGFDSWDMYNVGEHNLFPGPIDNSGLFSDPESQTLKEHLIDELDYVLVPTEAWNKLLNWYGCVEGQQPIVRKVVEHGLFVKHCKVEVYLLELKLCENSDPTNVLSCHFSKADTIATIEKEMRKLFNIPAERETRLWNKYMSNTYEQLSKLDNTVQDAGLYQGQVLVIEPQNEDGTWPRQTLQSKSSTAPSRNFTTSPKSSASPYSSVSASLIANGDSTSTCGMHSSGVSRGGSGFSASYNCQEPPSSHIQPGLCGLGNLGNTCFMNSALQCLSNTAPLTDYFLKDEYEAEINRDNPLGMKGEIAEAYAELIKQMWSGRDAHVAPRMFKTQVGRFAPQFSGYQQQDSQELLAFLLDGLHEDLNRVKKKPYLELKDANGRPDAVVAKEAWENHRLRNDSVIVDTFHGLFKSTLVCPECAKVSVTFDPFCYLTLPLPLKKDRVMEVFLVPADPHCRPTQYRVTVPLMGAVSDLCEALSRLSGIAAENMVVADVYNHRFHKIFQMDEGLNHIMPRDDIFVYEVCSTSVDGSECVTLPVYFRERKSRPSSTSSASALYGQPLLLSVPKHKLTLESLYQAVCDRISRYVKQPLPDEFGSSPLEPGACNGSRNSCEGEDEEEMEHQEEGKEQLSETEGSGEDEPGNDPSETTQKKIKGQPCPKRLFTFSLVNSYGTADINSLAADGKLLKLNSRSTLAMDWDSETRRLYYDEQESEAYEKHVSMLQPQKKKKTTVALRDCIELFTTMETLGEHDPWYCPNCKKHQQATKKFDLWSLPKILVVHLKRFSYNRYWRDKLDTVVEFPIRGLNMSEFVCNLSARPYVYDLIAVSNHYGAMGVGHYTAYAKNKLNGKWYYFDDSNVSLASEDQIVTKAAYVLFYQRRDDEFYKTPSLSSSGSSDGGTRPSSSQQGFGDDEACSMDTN
UniProt Q9NSB8: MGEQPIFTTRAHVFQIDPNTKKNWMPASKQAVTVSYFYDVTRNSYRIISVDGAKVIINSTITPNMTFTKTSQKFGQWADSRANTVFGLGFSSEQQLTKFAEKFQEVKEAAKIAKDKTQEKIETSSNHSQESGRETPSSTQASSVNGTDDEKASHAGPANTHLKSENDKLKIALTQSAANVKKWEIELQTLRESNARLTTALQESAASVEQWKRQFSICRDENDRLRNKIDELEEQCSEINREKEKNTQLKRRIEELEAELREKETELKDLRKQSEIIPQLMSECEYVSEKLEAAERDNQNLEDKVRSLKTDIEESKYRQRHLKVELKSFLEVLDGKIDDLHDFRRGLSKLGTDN
UniProt P33552, whole entry: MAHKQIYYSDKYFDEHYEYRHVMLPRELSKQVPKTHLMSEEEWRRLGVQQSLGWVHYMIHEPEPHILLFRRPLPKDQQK
UniProt Q96MH6: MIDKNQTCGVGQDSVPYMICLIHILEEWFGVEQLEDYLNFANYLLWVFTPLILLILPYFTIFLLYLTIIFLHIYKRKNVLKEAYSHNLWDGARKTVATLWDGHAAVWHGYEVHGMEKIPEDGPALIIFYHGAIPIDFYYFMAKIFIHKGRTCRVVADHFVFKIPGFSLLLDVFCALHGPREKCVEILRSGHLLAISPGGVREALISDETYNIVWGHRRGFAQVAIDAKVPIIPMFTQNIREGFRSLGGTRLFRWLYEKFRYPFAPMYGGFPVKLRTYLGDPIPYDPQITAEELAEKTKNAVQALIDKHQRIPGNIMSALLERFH
UniProt O95373, whole entry: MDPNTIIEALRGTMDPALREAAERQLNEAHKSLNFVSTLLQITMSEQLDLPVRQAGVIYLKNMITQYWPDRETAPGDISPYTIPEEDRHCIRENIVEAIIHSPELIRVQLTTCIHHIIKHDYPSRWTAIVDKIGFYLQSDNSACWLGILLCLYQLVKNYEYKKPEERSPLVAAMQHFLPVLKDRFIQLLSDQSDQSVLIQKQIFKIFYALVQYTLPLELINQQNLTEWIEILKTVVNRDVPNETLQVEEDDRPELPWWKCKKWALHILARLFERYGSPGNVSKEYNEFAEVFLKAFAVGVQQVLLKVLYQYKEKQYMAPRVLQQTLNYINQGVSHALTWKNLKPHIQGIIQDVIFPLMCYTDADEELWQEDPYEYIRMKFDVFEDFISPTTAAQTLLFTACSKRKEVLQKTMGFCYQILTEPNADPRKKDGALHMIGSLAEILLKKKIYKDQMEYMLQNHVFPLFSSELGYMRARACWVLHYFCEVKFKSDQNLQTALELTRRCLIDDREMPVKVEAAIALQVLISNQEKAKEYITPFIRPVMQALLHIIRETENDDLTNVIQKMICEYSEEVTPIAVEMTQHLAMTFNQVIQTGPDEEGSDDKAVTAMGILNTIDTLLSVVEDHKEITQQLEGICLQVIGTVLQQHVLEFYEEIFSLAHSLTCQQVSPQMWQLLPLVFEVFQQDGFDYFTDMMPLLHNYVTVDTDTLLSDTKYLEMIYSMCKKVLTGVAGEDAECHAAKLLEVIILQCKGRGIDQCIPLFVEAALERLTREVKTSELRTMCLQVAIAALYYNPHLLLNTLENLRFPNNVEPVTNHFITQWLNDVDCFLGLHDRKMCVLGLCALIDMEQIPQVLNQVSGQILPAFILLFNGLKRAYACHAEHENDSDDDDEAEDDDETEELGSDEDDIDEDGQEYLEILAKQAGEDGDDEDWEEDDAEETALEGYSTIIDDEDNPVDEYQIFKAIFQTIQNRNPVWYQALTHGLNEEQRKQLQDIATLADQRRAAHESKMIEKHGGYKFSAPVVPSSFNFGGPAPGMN
UniProt Q9NWS6: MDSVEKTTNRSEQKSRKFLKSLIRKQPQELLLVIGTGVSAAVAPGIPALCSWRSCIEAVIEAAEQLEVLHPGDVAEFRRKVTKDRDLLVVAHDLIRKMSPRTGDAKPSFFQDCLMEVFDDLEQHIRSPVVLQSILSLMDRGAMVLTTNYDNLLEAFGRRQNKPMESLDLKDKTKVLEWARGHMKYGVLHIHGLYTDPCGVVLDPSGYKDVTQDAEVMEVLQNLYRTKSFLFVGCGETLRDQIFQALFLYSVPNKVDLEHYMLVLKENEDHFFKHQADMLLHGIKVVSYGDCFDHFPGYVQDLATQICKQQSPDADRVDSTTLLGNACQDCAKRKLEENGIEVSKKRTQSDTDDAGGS
UniProt Q15291, whole entry: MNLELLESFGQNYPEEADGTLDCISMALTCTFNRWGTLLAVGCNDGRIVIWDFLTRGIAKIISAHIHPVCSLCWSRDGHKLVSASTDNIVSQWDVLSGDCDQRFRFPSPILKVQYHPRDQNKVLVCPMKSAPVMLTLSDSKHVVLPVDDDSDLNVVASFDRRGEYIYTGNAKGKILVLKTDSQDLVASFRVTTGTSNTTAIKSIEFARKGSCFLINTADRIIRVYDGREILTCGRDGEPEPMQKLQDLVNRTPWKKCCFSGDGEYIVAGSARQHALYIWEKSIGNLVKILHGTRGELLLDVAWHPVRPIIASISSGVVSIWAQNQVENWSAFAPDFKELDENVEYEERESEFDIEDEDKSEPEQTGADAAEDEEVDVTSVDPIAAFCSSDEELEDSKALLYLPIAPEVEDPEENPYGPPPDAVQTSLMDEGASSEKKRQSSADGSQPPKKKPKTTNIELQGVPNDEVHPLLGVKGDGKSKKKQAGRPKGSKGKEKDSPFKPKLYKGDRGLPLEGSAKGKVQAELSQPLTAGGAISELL
UniProt Q9NVM6: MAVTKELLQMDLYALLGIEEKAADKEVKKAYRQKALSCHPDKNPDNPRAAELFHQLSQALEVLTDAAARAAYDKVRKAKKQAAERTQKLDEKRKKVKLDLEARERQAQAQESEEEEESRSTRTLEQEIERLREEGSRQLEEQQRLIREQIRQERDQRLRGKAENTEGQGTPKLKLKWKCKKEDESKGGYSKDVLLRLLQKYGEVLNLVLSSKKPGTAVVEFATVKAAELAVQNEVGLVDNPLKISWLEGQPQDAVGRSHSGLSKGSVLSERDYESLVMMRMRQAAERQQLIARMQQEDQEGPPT

Compound: [O-][N+](C(C1=C(C(O)=C2)NC(C(C=C3)=CC=C3Cl)C4C1C=CC4)=C2Cl)=O
Experiment: melting temperature shift (compound 7 minus DMSO); higher = compound stabilises the protein
Details: 10 µM
Experimental: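 Thermal proteome profiling (TMT mass spectrometry) in intact DAOY medulloblastoma cells or DAOY lysates treated with 10 µM compound 7 or DMSO, heated at 10 temperatures from 40.5 to 73.8 °C for 3 min. Melting curves were fitted with the Bioconductor TPP package, and the melting point difference between compound and vehicle is reported per protein (single curve per condition).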

[1] = system: DAOY cell lysate, treatment time: 20 min, 4 °C
[2] = system: intact DAOY cells, treatment time: 90 min, 37 °C

Target | melting temperature shift [1] | melting temperature shift [2]
RING1 (UniProt Q06587) | -1.21 °C | 0.362 °C
UniProt O14531 | – | 1.79 °C
UXT (UniProt Q9UBK9) | -0.512 °C | 1.04 °C
SSR3 (UniProt Q9UNL2) | 1.8 °C | -1.99 °C
UniProt Q9BUA3 | 0.75 °C | –
HMCES (UniProt Q96FZ2) | -1.03 °C | -1.38 °C
ECE1 (UniProt P42892) | -0.111 °C | -0.815 °C
TSR1 (UniProt Q2NL82) | -0.58 °C | 0.0676 °C
MTX3 (UniProt Q5HYI7) | -1.76 °C | 0.811 °C
UniProt O60237 | – | -1.56 °C
UniProt Q92766 | -0.372 °C | –
TUBGCP4 (UniProt Q9UGJ1) | 0.111 °C | –
TXNDC15 (UniProt Q96J42) | -1.32 °C | –
THOP1 (UniProt P52888) | -1.37 °C | -0.0154 °C
UniProt P62380 | -0.792 °C | –
VPS37A (UniProt Q8NEZ2) | -1.12 °C | 0.425 °C
SAR1A (UniProt Q9NR31) | 0.251 °C | -0.283 °C
UniProt Q12765 | 0.36 °C | 0.774 °C
MRPL37 (UniProt Q9BZE1) | 2.08 °C | -0.72 °C
RWDD1 (UniProt Q9H446) | 0.83 °C | 0.704 °C
TRMT6 (UniProt Q9UJA5) | -0.032 °C | -0.0768 °C
UniProt Q9BYW2 | -0.434 °C | –
VPS4B (UniProt O75351) | -0.206 °C | -1.82 °C
UniProt Q9BV19 | 1.55 °C | 1.28 °C

Target | melting temperature shift [1] | melting temperature shift [2]
UQCRB (UniProt P14927) | 1.11 °C | –
UBE2I (UniProt P63279) | -0.464 °C | -0.66 °C
UniProt Q5TAT6 | 0.983 °C | –
TES (UniProt Q9UGI8) | 0.502 °C | –
XPO7 (UniProt Q9UIA9) | -0.849 °C | 0.187 °C
ZNHIT6 (UniProt Q9NWK9) | -0.231 °C | 0.61 °C
TP53BP2 (UniProt Q13625) | -1.12 °C | -2.23 °C
UniProt Q8TET4 | – | -0.332 °C
TAP1 (UniProt Q03518) | 0.812 °C | -1.29 °C
MAD2L2 (UniProt Q9UI95) | – | 0.17 °C
CPSF3 (UniProt Q9UKF6) | 0.157 °C | 0.308 °C
SUPT6H (UniProt Q7KZ85) | -0.24 °C | -0.231 °C
UniProt Q9NYP3 | -2.2 °C | –
GCAT (UniProt O75600) | 0.941 °C | -0.135 °C
UniProt O14972 | -0.923 °C | -0.838 °C
USP4 (UniProt Q13107) | -0.516 °C | –
NMD3 (UniProt Q96D46) | -0.519 °C | -1.32 °C
TRIP12 (UniProt Q14669) | -0.611 °C | 0.898 °C
TIMM50 (UniProt Q3ZCQ8) | 0.897 °C | -0.499 °C
ACADSB (UniProt P45954) | 0.147 °C | -1.25 °C
RPS26 (UniProt P62854) | 0.321 °C | -0.528 °C
UniProt Q9NSB8 | – | -0.0465 °C
UniProt Q06830 | 0.101 °C | 0.284 °C
DPCD (UniProt Q9BVM2) | -1.1 °C | –

Target | melting temperature shift [1] | melting temperature shift [2]
RBKS (UniProt Q9H477) | -4.06 °C | –
DHX15 (UniProt O43143) | -0.0443 °C | -0.201 °C
UniProt Q8IYT4 | – | 0.235 °C
MEAF6 (UniProt Q9HAF1) | – | 0.299 °C
CFL1 (UniProt P23528) | -1.35 °C | 1.2 °C
REXO4 (UniProt Q9GZR2) | 0.516 °C | –
CKS2 (UniProt P33552) | 0.262 °C | -0.0912 °C
SNUPN (UniProt O95149) | 1.92 °C | 0.322 °C
RPAP2 (UniProt Q8IXW5) | – | -0.194 °C
LMNA (UniProt P02545) | – | 1.49 °C
TARS2 (UniProt Q9BW92) | -0.00918 °C | -0.963 °C
FKBP10 (UniProt Q96AY3) | 1.61 °C | –
SEC24D (UniProt O94855) | -0.579 °C | -0.235 °C
UniProt Q9UHB7 | 0.253 °C | 1.66 °C
VPS4A (UniProt Q9UN37) | -1.41 °C | -0.223 °C
RTTN (UniProt Q86VV8) | -0.667 °C | -0.291 °C
TMEM68 (UniProt Q96MH6) | -2.3 °C | 0.133 °C
RPS23 (UniProt P62266) | 0.188 °C | -0.651 °C
UniProt P49753 | – | 1.07 °C
UniProt Q96DU9 | – | -0.065 °C
XAB2 (UniProt Q9HCS7) | -1.22 °C | 0.0102 °C
IPO7 (UniProt O95373) | -1.19 °C | -0.548 °C
NSUN6 (UniProt Q8TEA1) | -0.449 °C | 0.908 °C
UniProt P58335 | – | 0.561 °C

Reprinted at random: six entries already listed.
Target | melting temperature shift [1] | melting temperature shift [2]
REXO4 (UniProt Q9GZR2) | 0.516 °C | –
SEC24D (UniProt O94855) | -0.579 °C | -0.235 °C
IPO7 (UniProt O95373) | -1.19 °C | -0.548 °C
UniProt P58335 | – | 0.561 °C
RTTN (UniProt Q86VV8) | -0.667 °C | -0.291 °C
LMNA (UniProt P02545) | – | 1.49 °C

(further entries)

Target | melting temperature shift [1] | melting temperature shift [2]
DCTPP1 (UniProt Q9H773) | -2.36 °C | 0.79 °C
VPS33B (UniProt Q9H267) | -0.0106 °C | -0.138 °C
UniProt Q86U42 | 0.117 °C | -0.208 °C
UniProt Q92928 | – | -2.02 °C
ANAPC7 (UniProt Q9UJX3) | -0.124 °C | 0.721 °C
PTDSS1 (UniProt P48651) | -0.0311 °C | 0.392 °C
TNS1 (UniProt Q9HBL0) | 2.24 °C | –
BDH2 (UniProt Q9BUT1) | – | 1.39 °C
UniProt P26378 | – | -1.34 °C
UniProt Q9NWS6 | 1.48 °C | –
PDDC1 (UniProt Q8NB37) | -0.638 °C | -1.66 °C
POLR3A (UniProt O14802) | 0.361 °C | -1.33 °C
GCC2 (UniProt Q8IWJ2) | -0.314 °C | 0.238 °C
UniProt Q15417 | -0.207 °C | -0.473 °C
PITHD1 (UniProt Q9GZP4) | -2.46 °C | -1.5 °C
DPH7 (UniProt Q9BTV6) | – | 0.112 °C
UniProt Q7L9L4 | -1.36 °C | 0.236 °C
RBBP5 (UniProt Q15291) | 0.531 °C | 0.627 °C
UGGT1 (UniProt Q9NYU2) | 0.563 °C | 0.324 °C
DNAJC17 (UniProt Q9NVM6) | -0.249 °C | -0.503 °C
LMBRD1 (UniProt Q9NUN5) | 3.8 °C | –

Many values rest on one well or one pass, so single values are uncertain.
